Test results from the supplement of paper PMC6078165.
± gives the standard deviation of the averaged measurements. The reference is the same well before dosing, and untreated signal decays as well.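 Fibroblast labels denote human fibroblasts, mainly primary ones from uterus (C12385, HUF), lung (H6013), bone (Hs27A), adrenal (HADF) and skin (WS1), plus mammary HMF and breast cancer-associated Hs343T. Cancer cells are basal-like or mesenchymal-like triple-negative breast cancer lines. A hit is a response shift exceeding 3x replicate standard deviation. The tissue of the other fibroblasts is not given here.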

Tested on: MDAMB436
Experiment: relative JC-1 red fluorescence (viability) vs pre-drug, coculture with fibroblast (fraction); higher = more viable cancer cells
Protocol: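 JC-1 labelled TNBC cells cocultured 1:1 (1,500 cells each) with CellTrace Violet stained primary or stromal fibroblasts in 384-well plates in FluoroBrite medium, treated with one of 42 anticancer drugs at 0.1, 1, 10 or 100 uM. JC-1 red fluorescence (mitochondrial integrity in cancer cells only) was read by plate reader every 8 h for 72 h. Values are normalised to each well's pre-drug value. The stock of one drug was tenfold lower, so its dose labels may be too high.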

CS(=O)(=O)CCNCc1ccc(-c2ccc3ncnc(Nc4ccc(OCc5cccc(F)c5)c(Cl)c4)c3c2)o1 [Lapatinib]
relative JC-1 red fluorescence
Settings	8 h	16 h	24 h	32 h	40 h	48 h	56 h	64 h	72 h
0.1 µM, coculture fibroblast: C12385	0.824 ± 0.024	0.75 ± 0.044	0.701 ± 0.098	0.636 ± 0.098	0.585 ± 0.1	0.56 ± 0.11	0.543 ± 0.11	0.526 ± 0.11	0.518 ± 0.11
0.1 µM, coculture fibroblast: H6013	0.8071 ± 0.0066	0.719 ± 0.011	0.6669 ± 0.0009	0.6448 ± 0.0058	0.6224 ± 0.0057	0.627 ± 0.015	0.6 ± 0.017	0.58 ± 0.017	0.54 ± 0.025
0.1 µM, coculture fibroblast: H6019	0.746 ± 0.009	0.643 ± 0.017	0.6168 ± 0.0059	0.545 ± 0.013	0.495 ± 0.024	0.472 ± 0.025	0.43 ± 0.027	0.399 ± 0.025	0.372 ± 0.032
0.1 µM, coculture fibroblast: H6076	0.762 ± 0.024	0.651 ± 0.011	0.626 ± 0.0066	0.586 ± 0.0096	0.582 ± 0.017	0.558 ± 0.023	0.563 ± 0.039	0.563 ± 0.03	0.559 ± 0.03
0.1 µM, coculture fibroblast: H6231	0.764 ± 0.029	0.677 ± 0.029	0.651 ± 0.011	0.5805 ± 0.0051	0.5597 ± 0.0053	0.528 ± 0.006	0.511 ± 0.018	0.479 ± 0.021	0.451 ± 0.018
0.1 µM, coculture fibroblast: HADF	0.813 ± 0.02	0.731 ± 0.0088	0.668 ± 0.023	0.625 ± 0.04	0.594 ± 0.056	0.6 ± 0.057	0.541 ± 0.054	0.524 ± 0.053	0.481 ± 0.052
0.1 µM, coculture fibroblast: HCFa	0.786 ± 0.019	0.71 ± 0.036	0.662 ± 0.02	0.637 ± 0.019	0.612 ± 0.018	0.621 ± 0.013	0.561 ± 0.0076	0.5451 ± 0.0052	0.4861 ± 0.00099
0.1 µM, coculture fibroblast: HCPF	0.844 ± 0.085	0.759 ± 0.081	0.749 ± 0.096	0.709 ± 0.088	0.703 ± 0.09	0.674 ± 0.094	0.66 ± 0.097	0.64 ± 0.1	0.62 ± 0.11
0.1 µM, coculture fibroblast: HHSteC	0.865 ± 0.026	0.792 ± 0.045	0.76 ± 0.047	0.738 ± 0.048	0.727 ± 0.036	0.743 ± 0.028	0.678 ± 0.015	0.655 ± 0.016	0.589 ± 0.016
0.1 µM, coculture fibroblast: HMF	0.835 ± 0.042	0.736 ± 0.044	0.684 ± 0.034	0.64 ± 0.035	0.615 ± 0.032	0.58 ± 0.025	0.561 ± 0.012	0.537 ± 0.015	0.525 ± 0.01
0.1 µM, coculture fibroblast: HPFa	0.873 ± 0.019	0.807 ± 0.038	0.764 ± 0.03	0.711 ± 0.036	0.684 ± 0.038	0.691 ± 0.04	0.611 ± 0.045	0.57 ± 0.052	0.496 ± 0.05
0.1 µM, coculture fibroblast: HUF	0.854 ± 0.014	0.744 ± 0.026	0.711 ± 0.033	0.637 ± 0.037	0.575 ± 0.034	0.548 ± 0.038	0.522 ± 0.038	0.506 ± 0.036	0.489 ± 0.04
0.1 µM, coculture fibroblast: Hs5	0.8324 ± 0.0063	0.743 ± 0.017	0.698 ± 0.029	0.637 ± 0.03	0.608 ± 0.025	0.567 ± 0.031	0.553 ± 0.03	0.517 ± 0.028	0.498 ± 0.016
0.1 µM, coculture fibroblast: Hs27A	0.826 ± 0.024	0.759 ± 0.025	0.699 ± 0.024	0.681 ± 0.031	0.647 ± 0.03	0.675 ± 0.036	0.582 ± 0.042	0.557 ± 0.052	0.49 ± 0.049
0.1 µM, coculture fibroblast: Hs343T	0.771 ± 0.01	0.678 ± 0.018	0.639 ± 0.034	0.602 ± 0.04	0.571 ± 0.043	0.542 ± 0.056	0.522 ± 0.057	0.509 ± 0.053	0.499 ± 0.058
0.1 µM, coculture fibroblast: WS1	0.81 ± 0.016	0.728 ± 0.014	0.6814 ± 0.0065	0.597 ± 0.0062	0.5475 ± 0.0052	0.5238 ± 0.0029	0.4969 ± 0.0011	0.466 ± 0.0067	0.447 ± 0.0052
1 µM, coculture fibroblast: C12385	0.826 ± 0.018	0.776 ± 0.044	0.746 ± 0.038	0.669 ± 0.043	0.633 ± 0.039	0.605 ± 0.035	0.58 ± 0.036	0.561 ± 0.033	0.548 ± 0.036
1 µM, coculture fibroblast: H6013	0.854 ± 0.023	0.836 ± 0.016	0.82 ± 0.017	0.811 ± 0.025	0.807 ± 0.027	0.824 ± 0.031	0.788 ± 0.033	0.769 ± 0.034	0.719 ± 0.04
1 µM, coculture fibroblast: H6019	0.806 ± 0.011	0.809 ± 0.013	0.828 ± 0.041	0.77 ± 0.052	0.752 ± 0.049	0.752 ± 0.048	0.728 ± 0.051	0.709 ± 0.058	0.682 ± 0.059
1 µM, coculture fibroblast: H6076	0.788 ± 0.019	0.762 ± 0.047	0.78 ± 0.051	0.758 ± 0.054	0.733 ± 0.059	0.717 ± 0.059	0.733 ± 0.068	0.727 ± 0.064	0.72 ± 0.077
1 µM, coculture fibroblast: H6231	0.782 ± 0.01	0.681 ± 0.0027	0.742 ± 0.0098	0.6539 ± 0.00086	0.6323 ± 0.0043	0.604 ± 0.0071	0.595 ± 0.015	0.58 ± 0.018	0.558 ± 0.017
1 µM, coculture fibroblast: HADF	0.8384 ± 0.0031	0.8437 ± 0.0054	0.817 ± 0.014	0.78 ± 0.0099	0.7748 ± 0.0045	0.8005 ± 0.0079	0.734 ± 0.0094	0.7314 ± 0.0059	0.6753 ± 0.0026
1 µM, coculture fibroblast: HCFa	0.853 ± 0.029	0.836 ± 0.018	0.817 ± 0.014	0.782 ± 0.012	0.763 ± 0.022	0.777 ± 0.034	0.713 ± 0.031	0.69 ± 0.027	0.629 ± 0.032
1 µM, coculture fibroblast: HCPF	0.825 ± 0.022	0.774 ± 0.029	0.772 ± 0.024	0.712 ± 0.029	0.677 ± 0.026	0.638 ± 0.032	0.607 ± 0.024	0.584 ± 0.0095	0.549 ± 0.016
1 µM, coculture fibroblast: HHSteC	0.859 ± 0.021	0.852 ± 0.01	0.825 ± 0.016	0.779 ± 0.029	0.77 ± 0.024	0.774 ± 0.034	0.698 ± 0.048	0.673 ± 0.04	0.61 ± 0.039
1 µM, coculture fibroblast: HMF	0.868 ± 0.0021	0.8063 ± 0.0011	0.77773 ± 9.2e-06	0.7199 ± 0.00092	0.6899 ± 0.0021	0.6472 ± 0.0017	0.6323 ± 0.0041	0.603 ± 0.0094	0.573 ± 0.016
1 µM, coculture fibroblast: HPFa	0.9423 ± 0.0046	0.8956 ± 0.0039	0.878 ± 0.023	0.841 ± 0.033	0.828 ± 0.038	0.827 ± 0.059	0.75 ± 0.07	0.712 ± 0.073	0.645 ± 0.079
1 µM, coculture fibroblast: HUF	0.912 ± 0.014	0.8313 ± 0.0044	0.807 ± 0.021	0.737 ± 0.028	0.675 ± 0.034	0.643 ± 0.05	0.614 ± 0.05	0.592 ± 0.057	0.577 ± 0.049
1 µM, coculture fibroblast: Hs5	0.793 ± 0.013	0.74 ± 0.0097	0.736 ± 0.013	0.689 ± 0.0084	0.673 ± 0.0072	0.625 ± 0.0076	0.627 ± 0.016	0.6 ± 0.013	0.581 ± 0.019
1 µM, coculture fibroblast: Hs27A	0.8905 ± 0.00096	0.849 ± 0.069	0.864 ± 0.058	0.844 ± 0.072	0.826 ± 0.072	0.878 ± 0.075	0.798 ± 0.078	0.793 ± 0.078	0.725 ± 0.077
1 µM, coculture fibroblast: Hs343T	0.831 ± 0.0091	0.745 ± 0.023	0.734 ± 0.017	0.697 ± 0.016	0.6626 ± 0.004	0.6304 ± 0.0011	0.6095 ± 0.005	0.582 ± 0.0092	0.562 ± 0.016
1 µM, coculture fibroblast: WS1	0.815 ± 0.024	0.762 ± 0.03	0.742 ± 0.044	0.67 ± 0.046	0.633 ± 0.059	0.618 ± 0.066	0.597 ± 0.066	0.572 ± 0.066	0.555 ± 0.06
